The series concerns the target p53 wild-type (UniProt P04637). Description: activity in cells. To be noted: CAT reporter pTM667-3, H358 cells; about 30 fold in Saos-2; protein in cells.

The exact form of at least one protein or probe is not confirmed.

As to “GGGAATTCCAGACTGCAGTGAGCCATGATTGGGCCACTGCACTCCAGCCTGGGCAACACAGTGAGACCCTGTCTCAAAAAAAAAAAAAAAAAAAAAAAAAAAAACAGGAAAAAACAAACAAACAGAAAAGCAGGCCTGGCGCGGTAGCTCATGCCTGTAATCCCAGCGCTTTGGAAGGCTGAGACGGGGTTATCTCTTGGGCTCACAAGTTAGAGACAAGCCTGGGCGTGGGCTATATTGCTAGATCCAGGTCTCTGCAAAAAACAAAACCACTCAGTTTTTAGTCATCTATAACGTCCTGCCTGGAAGCATGCTATTTTGGGCCTCTGAGCTTTTGCACTTGCTAATTCCTTCTGCGCTGGGGAGAGCT (double strand) [bax promoter -687 to -318]”, the activity on this sequence was 60 fold.

Values taken from patent US5744310.
